The text below walks through data of PubChem BioAssay AID2685 (National Center for Advancing Translational Sciences (NCATS), 2010).

The test in a line: qHTS Assay for Lipid Storage Modulators in Drosophila S3 Cells.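 As to cell number change: cells counted by Cell Tracker Red CMTPX staining in the red channel.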 To be noted: BODIPY lipid droplet fluorescence, 18-24 h; for cell number change: measured here: cell count max response, cells fed with added oleic acid. In short, it runs like this: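 Laser-scanning cytometry quantifies lipid droplet accumulation (500–530 nm total intensity; droplet/cell object ratio) in oleic acid-fed (400 uM added) Drosophila S3 cells treated with a concentration series. 20 uM Triacsin C defined 100% inhibition.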
(In general: In qHTS, concentration-response curves come from the screen itself.)

[1] abbreviates: measured here: cell number channel AC50, cells fed with added oleic acid.
[2] abbreviates: measured here: lipid fluorescence (Fed channel) AC50, cells fed with added oleic acid.

Some of the results follow. Shown are side measurements of this screen, not its main read-out; they come without a call. Most of these compounds were active or inconclusive in the main read-out, so they are no random draw. Potencies come from curve fits of mixed quality, noted in brackets.

Take `O=C(Nc1ccccc1)/C(=C/c1ccc(O)cc1)NC(=O)c1ccco1`: the cell number change was found to be 20.2%.

Consider `FC(F)(F)C1CCCN(c2nsc3ccccc23)C1` (stereo not drawn), for which the cell number change was found to be 84.2%. In addition, the AC50 (as a rule, the concentration giving half of the maximal activity seen) under setting [1] was 20600 nM [rising, partial curve]. Besides, under setting [2], the AC50 was 5620 nM [rising, single point].

Turning to `CC(=O)Nc1ccc(NC(=O)c2ccccc2N(C)S(=O)(=O)c2ccc(C)cc2)cc1`, the cell number change is -21.8%. For the same molecule, under setting [2], the AC50 was 29100 nM [falling, single point].

For `CC(C)c1nc2sc3c(NCc4ccco4)ncnc3c2c2c1COC(C)(C)C2`, the cell number change is -19.6%. The concentration at half-maximal activity (AC50) under setting [2] is 231 nM [rising, partial curve, poor fit].

For the molecule `COc1cc(NC(=O)CN2CCN(c3ccccc3F)CC2)cc(OC)c1`, the cell number change was -0.947%.

With `CC(C)(C)c1ccc(O)c(O)c1`, the cell number change is -9.7%. Further, the AC50 under setting [1] was 184 nM [falling, partial curve]. In addition, the AC50 under setting [2] was 29.1 nM [falling, full curve].

For `COc1ccc(-c2oc(=O)c3cc(OC)c(OC)cc3c2/C=C/c2ccc(F)cc2)cc1`, the cell number change turned out to be 16.6%. The AC50 under setting [1] was 580 nM [falling, single point]. In addition, the AC50 under setting [2] is 580 nM [falling, single point].

In the case of `Cc1ccc(S(=O)(=O)N2CCN(S(=O)(=O)c3cccs3)CC2)cc1`, the cell number change turned out to be 10.3%.

Consider `O=C(CSc1nnc(C2COc3ccccc3O2)o1)N1CCCc2ccccc21` (stereo not drawn), for which the cell number change was 11%.

As for `COc1ccc(C)cc1C1=CC(=O)C[C@H](c2ccc(F)cc2)C1`, the cell number change was 11.8%. For the same molecule, under setting [2], the AC50 was 116 nM [falling, single point].

For `COc1ccc(CNC(=O)C(C)Sc2nc3ccccc3c(=O)n2CCCN2CCOCC2)cc1` (stereo not drawn), the cell number change turned out to be 69.3%. Under setting [1], the AC50 is 8200 nM [rising, partial curve, poor fit].

As to `O=C(NC1CCCCC1)c1ccc(CNc2c(N3CCOCC3)c(=O)c2=O)cc1`, the cell number change is -9.12%. For the same molecule, the half-maximal activity concentration (AC50) under setting [2] is 4110 nM [falling, partial curve].

`COc1ccc(NC(=O)C2CCN(S(=O)(=O)c3cccc4nonc34)CC2)cc1OC`: the cell number change was -40.5%. Moreover, the concentration at half-maximal activity (AC50) under setting [1] was 7310 nM [falling, partial curve].

For the molecule `CCOc1ccccc1NC(=O)COc1ccc2ccc(=O)oc2c1`, the cell number change is -15.8%.

As for `O=C(NNC(=O)c1ccccc1OCc1ccccc1)c1ccccc1O`, the cell number change was -11.9%. In addition, under setting [2], the concentration at half-maximal activity (AC50) is 29100 nM [falling, single point].

For the molecule `Fc1cccc(Cl)c1COc1ccc(-c2nnco2)cc1`, the cell number change was found to be 11.5%. Also, the concentration at half-maximal activity (AC50) under setting [1] is 580 nM [rising, partial curve, poor fit]. Also, the half-maximal activity concentration (AC50) under setting [2] was 1300 nM [falling, full curve].

As to `CCCN(C(=O)c1cc(S(=O)(=O)N2CCCCC2)ccc1Cl)C1CCS(=O)(=O)C1` (stereo not drawn), the cell number change was 23.9%. Besides, under setting [1], the AC50 was 4610 nM [rising, full curve, poor fit].
